The source of these data is paper doi:10.1101/2025.04.27.650876.

Results are given in words; binding and its absence hold for the method and conditions named. Some binding calls cover weakened binding; strength is not graded here. Tags and fused reporters may be left off the sequences shown.

Experiment [1] has as its target T1, recombinant His-DPPA4 (human) (UniProt Q7L190).
T1 sequence: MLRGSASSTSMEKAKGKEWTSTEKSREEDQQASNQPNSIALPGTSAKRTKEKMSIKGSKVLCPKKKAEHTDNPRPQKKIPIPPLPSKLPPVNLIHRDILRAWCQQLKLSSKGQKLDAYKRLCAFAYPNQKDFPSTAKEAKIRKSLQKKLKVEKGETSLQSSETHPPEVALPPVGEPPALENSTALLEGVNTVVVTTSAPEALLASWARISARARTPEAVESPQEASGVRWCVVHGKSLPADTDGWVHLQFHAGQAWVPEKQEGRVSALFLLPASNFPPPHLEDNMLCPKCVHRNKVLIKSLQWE
Briefly: mass photometry.

Experiment [2] concerns the target recombinant DPPA2-Myc/Flag (human) (UniProt Q7Z7J5). Kind of experiment: mass photometry.

B1: recombinant His-DPPA4 (protein, UniProt Q7L190 1-304)
chain: T1 sequence
With B1, the binding entry in experiment [1] is recorded as “binds”.

B2: recombinant DPPA2-Myc/Flag (protein, UniProt Q7Z7J5 1-298)
chain: MSDANLDSSKKNFLEGEVDDEESVILTLVPVKDDANMEQMEPSVSSTSDVKLEKPKKYNPGHLLQTNEQFTAPQKARCKIPALPLPTILPPINKVCRDTLRDWCQQLGLSTNGKKIEVYLRLHRHAYPEQRQDMPEMSQETRLQRCSRKRKAVTKRARLQRSYEMNERAEETNTVEVITSAPGAMLASWARIAARAVQPKALNSCSIPVSVEAFLMQASGVRWCVVHGRLLSADTKGWVRLQFHAGQAWVPTTHRRMISLFLLPACIFPSPGIEDNMLCPDCAKRNKKMMKRLMTVEK
In the case of B2, the binding entry in experiment [2] and in experiment [1] was “binds” each time.
